Reference: US20260279495A1, “METHODS FOR PREDICTING RESPONSE TO PHARMACOLOGICAL AGENTS IN PATIENTS WITH OBESITY” (Phenomix Sciences Inc., priority 2023, published 2026)
For at least one compound, name, drawing or mass did not settle the structure.

Test: 16-week randomized, placebo-controlled trial of liraglutide 3 mg SQ/day: total body weight loss
Type: in vivo, human
Details: 16 weeks; for TBWL %: liraglutide 3 mg SQ/day
[1] = Total (all genotyped completers)

With `CCCCCCCCCCCCCCCC(=O)N[C@@H](CCC(=O)NCCCC[C@H](NC(=O)[C@H](C)NC(=O)[C@H](C)NC(=O)[C@H](CCC(N)=O)NC(=O)CNC(=O)[C@H](CCC(=O)O)NC(=O)[C@H](CC(C)C)NC(=O)[C@H](Cc1ccc(O)cc1)NC(=O)[C@H](CO)NC(=O)[C@H](CO)NC(=O)[C@@H](NC(=O)[C@H](CC(=O)O)NC(=O)[C@H](CO)NC(=O)[C@@H](NC(=O)[C@H](Cc1ccccc1)NC(=O)[C@@H](NC(=O)CNC(=O)[C@H](CCC(=O)O)NC(=O)[C@H](C)NC(=O)[C@@H](N)Cc1cnc[nH]1)[C@@H](C)O)[C@@H](C)O)C(C)C)C(=O)N[C@@H](CCC(=O)O)C(=O)N[C@@H](Cc1ccccc1)C(=O)N[C@H](C(=O)N[C@@H](C)C(=O)N[C@@H](Cc1c[nH]c2ccccc12)C(=O)N[C@@H](CC(C)C)C(=O)N[C@H](C(=O)N[C@@H](CCCNC(=N)N)C(=O)NCC(=O)N[C@@H](CCCNC(=N)N)C(=O)NCC(=O)O)C(C)C)[C@@H](C)CC)C(=O)O` [liraglutide] the “Response (TBWL > 4%) No, number of participants” value (“Response (TBWL > 4%) No, number” for short) [1] was 15, the “Response (TBWL > 4%) Yes, number of participants” value (“Response (TBWL > 4%) Yes, number” below) [1] was 32 and the “total body weight loss” value (high CTS by the ad libitum meal) was −3.3%. For the same compound, the “total body weight loss” value (high CTSGRS) was −3.7%, the “total body weight loss” value (low CTS by the ad libitum meal) was −6.7% and the “total body weight loss” value (low CTSGRS) was −6.9%. The “Response (TBWL > 4%) No, number” value (predicted CTSGRS High) was 11, the “Response (TBWL > 4%) Yes, number” value (predicted CTSGRS High) was 9 and the “Response (TBWL > 4%) No, number” value (predicted CTSGRS Low) was 4. The “Response (TBWL > 4%) Yes, number” value (predicted CTSGRS Low) was 23, the TBWL % (group predicted as non-responder using FPT (abnormal satiation)) was −3.6±3.3% and the TBWL % (group predicted as non-responder using the PRS) was −5.6±3.3%. For the same compound, the TBWL % (group predicted as responder using FPT (non-abnormal satiation)) was −7.6±3.4% and the TBWL % (group predicted as responder using the PRS) was −8.0±4.4%.
